# Experimental data reported in PubChem BioAssay AID720664 (National Center for Advancing Translational Sciences (NCATS), 2013).
# The chains behind the UniProt entries cited, without tags or fusion partners. Where a name states a change or a piece, a line headed by the entry shows the natural chain unless it says otherwise.
# UniProt P51570: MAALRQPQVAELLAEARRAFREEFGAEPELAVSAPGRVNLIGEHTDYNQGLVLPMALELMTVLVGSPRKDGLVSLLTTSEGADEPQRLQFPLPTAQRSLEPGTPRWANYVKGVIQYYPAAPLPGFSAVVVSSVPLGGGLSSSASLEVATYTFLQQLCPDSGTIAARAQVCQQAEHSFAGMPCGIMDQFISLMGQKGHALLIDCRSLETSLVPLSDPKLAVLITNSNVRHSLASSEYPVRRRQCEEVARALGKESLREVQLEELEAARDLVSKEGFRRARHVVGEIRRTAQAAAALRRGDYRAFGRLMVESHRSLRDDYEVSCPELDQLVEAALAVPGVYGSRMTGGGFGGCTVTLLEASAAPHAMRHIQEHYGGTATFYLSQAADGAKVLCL
# “And” between values parts separate entries of the source, which are not always exact repeats. Equal values may be shown once. The inconclusive results got no clear call from the source; some entries with a clear call stand among them for comparison. Potencies of inconclusive entries are doubtful fits and often do not repeat. Some structures have more than one record in an assay (separate samples or runs), and their calls can disagree. The source made the active and inactive calls. The call rests on the fitted dose curve; in most records, active means well fitted inhibition curve with a large enough effect; inconclusive means small, poorly fitted or top-dose-only effect; inactive means flat fitted curve, though single readings scatter.
# Molecular target: Galactokinase (Homo sapiens) (UniProt P51570)
# Assay: qHTS for Inhibitors of Human Galactokinase (GALK): SAR round 3
# Details: ADP detection luminescence, 1 h; series mostly up to 57.5 µM; activity change, negative = inhibition: at the top concentration
# In short: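 Cherry-picked actives were retested in quantitative dose format against 5 nM human galactokinase, using 100 µM galactose and 35 µM ATP at pH 8.0 (HEPES, MgCl2, NaCl). After 1 h at room temperature, product was quantified by luminescence.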
SMILES,Potency,"activity change, negative = inhibition"
CC1=C(C(=O)Nc2ccon2)C(c2nn(C)cc2Cl)N=C(Nc2nc3ccccc3o2)N1 (centres undefined),"inconclusive: 19.3 µM [inhibitor, partial curve] and inconclusive: 24.3 µM [inhibitor, partial curve]",
CC1=C(C(=O)Nc2ccccc2Cl)C(c2ccccc2Br)N=C(Nc2nc3ccccc3o2)N1 (centres undefined),"inconclusive: 6.85 µM [inhibitor, full curve]",
O=C1CCCC2=C1C(c1ccccc1Cl)N=C(Nc1nc3ccccc3o1)N2 (centres undefined),"inconclusive: 15.3 µM [inhibitor, partial curve] and inconclusive: 8.63 µM [inhibitor, full curve]",
CC1=C(C(=O)N(C)C)C(c2ccccc2Br)N=C(Nc2nc3ccccc3o2)N1 (centres undefined),"inconclusive: 21.7 µM [inhibitor, partial curve]",
CC1=C(C(=O)Nc2ccccc2)C(c2ccccc2Cl)N=C(Nc2nc3ccccc3o2)N1 (centres undefined),"inconclusive: 8.63 µM [inhibitor, full curve]",
O=C1CCCC2=C1C(c1[nH]ncc1Cl)NC(=NCc1ccco1)N2 (centres undefined),,inactive: -8.02%
CC1=C(C(=O)Nc2ccc(Cl)cc2)C(c2ccccc2Br)N=C(Nc2nc3ccccc3o2)N1 (centres undefined),,inactive: -19.1%
O=C1CCCC2=C1C1(CCCCC1)N=C(Nc1nc3ccccc3o1)N2,"inconclusive: 24.3 µM [inhibitor, partial curve]",
O=C1CCCC2=C1C(c1ccccc1C(F)(F)F)N=C(Nc1nc3ccccc3o1)N2 (centres undefined),"inconclusive: 12.2 µM [inhibitor, full curve]",
O=C1CCCC2=C1C(c1ccncc1Cl)N=C(Nc1nc3ccccc3o1)N2 (centres undefined),active: 19.3 µM,
CC1CCC2(C1)N=C(Nc1nc3ccccc3o1)NC1=C2C(=O)CCC1 (centres undefined),"inconclusive: 15.3 µM [inhibitor, partial curve]",
O=C1CCCC2=C1C(c1cnccc1C(F)(F)F)N=C(Nc1nc3ccccc3o1)N2 (centres undefined),"inconclusive: 24.3 µM [inhibitor, partial curve]",
O=C1CCCC2=C1C(c1[nH]ncc1Cl)NC(=NCCc1ccccc1)N2 (centres undefined),,inactive: 0.974%
Cc1ccc2nc(NC3=NC4(CCCC4)C4=C(CCCC4=O)N3)oc2c1,"inconclusive: 19.3 µM [inhibitor, partial curve]",
Cc1ccsc1C1N=C(Nc2nc3ccccc3o2)NC2=C1C(=O)CCC2 (centres undefined),"inconclusive: 24.3 µM [inhibitor, partial curve]",
O=C1CCCC2=C1C(c1[nH]ncc1Cl)N=C(Nc1nc3ccccc3o1)N2 (centres undefined),"inconclusive: 19.3 µM [inhibitor, partial curve]",
Cc1ccc2oc(NC3=NC(c4ccccc4Cl)C4=C(CCCC4=O)N3)nc2c1 (centres undefined),active: 6.11 µM,
Cc1cc(NC2=NC(c3[nH]ncc3Cl)C3=C(CCCC3=O)N2)no1 (centres undefined),,inactive: -5.6%
O=C1CCCC2=C1C(c1ccccc1Br)N=C(Nc1nc3ccccc3o1)N2 (centres undefined),active: 6.11 µM,

# Nothing new here: entries from further up.
SMILES,Potency,"activity change, negative = inhibition"
O=C1CCCC2=C1C(c1[nH]ncc1Cl)NC(=NCCc1ccccc1)N2 (centres undefined),,inactive: 0.974%
Cc1ccc2nc(NC3=NC4(CCCC4)C4=C(CCCC4=O)N3)oc2c1,"inconclusive: 19.3 µM [inhibitor, partial curve]",
